# Some of the results follow. Many values rest on one well or one pass, so single values are uncertain.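 The apoptosis fraction was the count of cleaved-PARP antibody-stained nuclei relative to all DNA-stained nuclei, imaged in 1,536-well plates. Screening doses were set so most cells survived, and baseline and induced cleaved-PARP levels vary greatly across cell lines.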
# Test system: CBRC008 (line from a melanoma biopsy)
# Assay: cleaved PARP positive nuclei fraction relative to DMSO control; melanoma cells; higher = more apoptosis
# Conditions: library dose: low library concentration; 72 h
row,Compound,cleaved PARP positive nuclei fraction [%]
1,"Cn1c(=O)n(-c2ccc(C(C)(C)C#N)cc2)c2c3cc(-c4cnc5ccccc5c4)ccc3ncc21 + COc1cc2c(Oc3ccc4[nH]c(C)cc4c3F)ncnc2cc1OCCCN1CCCC1 [cediranib] (first compound 0.004 µM, partner dose 0.4 µM)",49.2
2,"Cc1cc(Nc2cc(N3CCN(C)CC3)nc(/C=C/c3ccccc3)n2)n[nH]1 + NC(=O)Nc1cc(-c2cccc(F)c2)sc1C(=O)N[C@H]1CCCNC1 [AZD7762] (first compound 0.04 µM, partner dose 0.02 µM)",54.6
3,"Nc1nc(F)nc2c1ncn2[C@@H]1O[C@H](CO)[C@@H](O)[C@@H]1O [fludarabine] + O=C(Nc1cccc(Cl)c1)Nc1ncc(CCNc2ncnc3ccsc23)s1 [SNS314] (first compound 0.2 µM, partner dose 0.0008 µM)",222
4,"CS(=O)(=O)CCNCc1ccc(-c2ccc3ncnc(Nc4ccc(OCc5cccc(F)c5)c(Cl)c4)c3c2)o1 [lapatinib] + CN(NC(=O)CC(=O)NN(C)C(=S)c1ccccc1)C(=S)c1ccccc1 [STA4783] (first compound 0.8 µM, partner dose 0.006 µM)",1510
5,"CC(C)C[C@H](NC(=O)[C@H](Cc1ccccc1)NC(=O)c1cnccn1)B(O)O [Bortezomib] + CO[C@@H]1[C@H](N(C)C(=O)c2ccccc2)C[C@H]2O[C@]1(C)n1c3ccccc3c3c4c(c5c6ccccc6n2c5c31)C(=O)NC4 [Midostaurin] (first compound 0.001 µM, partner dose 0.08 µM)",399
6,"C[C@@H](Oc1cc(-c2cnn(C3CCNCC3)c2)cnc1N)c1c(Cl)ccc(F)c1Cl [Crizotinib] + O=C(O)c1ccc(-c2c[nH]c3ncc(-c4ccccc4)cc23)cc1C1CCCC1 [GSK650394] (first compound 0.2 µM, partner dose 0.16 µM)",412
7,"CS(=O)(=O)CCNCc1ccc(-c2ccc3ncnc(Nc4ccc(OCc5cccc(F)c5)c(Cl)c4)c3c2)o1 [lapatinib] + NC(=O)Nc1cc(-c2cccc(F)c2)sc1C(=O)N[C@H]1CCCNC1 [AZD7762] (first compound 0.8 µM, partner dose 0.02 µM)",242
8,"CNC(=O)c1cc(Oc2ccc(NC(=O)Nc3ccc(Cl)c(C(F)(F)F)c3)cc2)ccn1 [sorafenib] + NC(=O)Nc1cc(-c2cccc(F)c2)sc1C(=O)N[C@H]1CCCNC1 [AZD7762] (first compound 0.4 µM, partner dose 0.02 µM)",118
9,"CN1CCN(c2ccc3nc(-c4c(N)c5c(F)cccc5[nH]c4=O)[nH]c3c2)CC1 [Dovitinib] + NCC(=O)Nc1ccc(-n2nc(C(F)(F)F)cc2-c2ccc3c(ccc4ccccc43)c2)cc1 [OSU03012] (first compound 0.1 µM, partner dose 1 µM)",207
10,"C=C(c1ccc(C(=O)O)cc1)c1cc2c(cc1C)C(C)(C)CCC2(C)C [Bexarotene] + NC(=O)Nc1cc(-c2cccc(F)c2)sc1C(=O)N[C@H]1CCCNC1 [AZD7762] (first compound 2 µM, partner dose 0.02 µM)",191
11,"Cn1c(=O)n(-c2ccc(C(C)(C)C#N)cc2)c2c3cc(-c4cnc5ccccc5c4)ccc3ncc21 + Cn1cncc1[C@@](N)(c1ccc(Cl)cc1)c1ccc2c(c1)c(-c1cccc(Cl)c1)cc(=O)n2C [tipifarnib] (first compound 0.004 µM, partner dose 0.01 µM)",133
12,"C[C@@H](Oc1cc(-c2cnn(C3CCNCC3)c2)cnc1N)c1c(Cl)ccc(F)c1Cl [Crizotinib] + CN(NC(=O)CC(=O)NN(C)C(=S)c1ccccc1)C(=S)c1ccccc1 [STA4783] (first compound 0.2 µM, partner dose 0.006 µM)",2550
13,"CC(C)C[C@H](NC(=O)[C@H](Cc1ccccc1)NC(=O)c1cnccn1)B(O)O [Bortezomib] + COc1cc2c(Oc3ccc4[nH]c(C)cc4c3F)ncnc2cc1OCCCN1CCCC1 [cediranib] (first compound 0.001 µM, partner dose 0.4 µM)",964
14,"Cc1cc(Nc2cc(N3CCN(C)CC3)nc(/C=C/c3ccccc3)n2)n[nH]1 + Cc1cc(N2CCOCC2)cc2[nH]c(-c3c(NC[C@@H](O)c4cccc(Cl)c4)cc[nH]c3=O)nc12 [BMS536924] (first compound 0.04 µM, partner dose 0.2 µM)",258
15,"C[C@@H](Oc1cc(-c2cnn(C3CCNCC3)c2)cnc1N)c1c(Cl)ccc(F)c1Cl [Crizotinib] + CC1(C)NC(=O)N(c2ccc([N+](=O)[O-])c(C(F)(F)F)c2)C1=O [nilutamide] (first compound 0.2 µM, partner dose 1 µM)",110
16,"Cn1c(=O)n(-c2ccc(C(C)(C)C#N)cc2)c2c3cc(-c4cnc5ccccc5c4)ccc3ncc21 + NC(=O)Nc1cc(-c2cccc(F)c2)sc1C(=O)N[C@H]1CCCNC1 [AZD7762] (first compound 0.004 µM, partner dose 0.02 µM)",118
17,"CC(C)C[C@H](NC(=O)[C@H](Cc1ccccc1)NC(=O)c1cnccn1)B(O)O [Bortezomib] + O=C(O)c1ccc(-c2c[nH]c3ncc(-c4ccccc4)cc23)cc1C1CCCC1 [GSK650394] (first compound 0.001 µM, partner dose 0.16 µM)",1010
18,"C[C@@H](Oc1cc(-c2cnn(C3CCNCC3)c2)cnc1N)c1c(Cl)ccc(F)c1Cl [Crizotinib] + C[C@@H]1CCN(C(=O)CC#N)C[C@@H]1N(C)c1ncnc2[nH]ccc12 [CP690550] (first compound 0.2 µM, partner dose 1 µM)",42.6
19,"CC(C)C[C@H](NC(=O)[C@H](Cc1ccccc1)NC(=O)c1cnccn1)B(O)O [Bortezomib] + Cc1cc(N2CCOCC2)cc2[nH]c(-c3c(NC[C@@H](O)c4cccc(Cl)c4)cc[nH]c3=O)nc12 [BMS536924] (first compound 0.001 µM, partner dose 0.2 µM)",943
20,"Nc1ccn([C@@H]2O[C@H](CO)[C@@H](O)C2(F)F)c(=O)n1 [gemcitabine] + CC(C)(C)c1cnc(CSc2cnc(NC(=O)C3CCNCC3)s2)o1 [SNS-032] (first compound 0.0004 µM, partner dose 0.01 µM)",289
21,"CCCS(=O)(=O)Nc1ccc(F)c(C(=O)c2c[nH]c3ncc(Cl)cc23)c1F + C=CCn1c(=O)c2cnc(Nc3ccc(N4CCN(C)CC4)cc3)nc2n1-c1cccc(C(C)(C)O)n1 [MK1775] (first compound 0.08 µM, partner dose 0.02 µM)",57.6
22,"Nc1ccn([C@@H]2O[C@H](CO)[C@@H](O)C2(F)F)c(=O)n1 [gemcitabine] + CC1(C)NC(=O)N(c2ccc([N+](=O)[O-])c(C(F)(F)F)c2)C1=O [nilutamide] (first compound 0.0004 µM, partner dose 1 µM)",216
23,"CC(C)C[C@H](NC(=O)[C@H](Cc1ccccc1)NC(=O)c1cnccn1)B(O)O [Bortezomib] + Cc1ccc(NC(=O)c2cccc(N(C)C)c2)cc1NC(=O)c1ccc(O)cc1 [ZM336372] (first compound 0.001 µM, partner dose 2 µM)",777
24,"CCCS(=O)(=O)Nc1ccc(F)c(C(=O)c2c[nH]c3ncc(Cl)cc23)c1F + CN(NC(=O)CC(=O)NN(C)C(=S)c1ccccc1)C(=S)c1ccccc1 [STA4783] (first compound 0.08 µM, partner dose 0.006 µM)",1720
25,"O=C(O)[C@@H]1[O][Sb](=[O])([O][Sb]2(=[O])[O][C@H]([C@H](O)CO)[C@H](O)[C@H](C(=O)O)[O]2)[O][C@H]([C@H](O)CO)[C@@H]1O (some centres not stated) [stibogluconate] + C[C@@H]1CCN(C(=O)CC#N)C[C@@H]1N(C)c1ncnc2[nH]ccc12 [CP690550] (first compound 2 µM, partner dose 1 µM)",91.4
26,"C=C(c1ccc(C(=O)O)cc1)c1cc2c(cc1C)C(C)(C)CCC2(C)C [Bexarotene] + Cc1ccc(NC(=O)c2cccc(N(C)C)c2)cc1NC(=O)c1ccc(O)cc1 [ZM336372] (first compound 2 µM, partner dose 2 µM)",50.5
27,"Cc1cc(Nc2cc(N3CCN(C)CC3)nc(/C=C/c3ccccc3)n2)n[nH]1 + CO[C@@H]1[C@H](N(C)C(=O)c2ccccc2)C[C@H]2O[C@]1(C)n1c3ccccc3c3c4c(c5c6ccccc6n2c5c31)C(=O)NC4 [Midostaurin] (first compound 0.04 µM, partner dose 0.08 µM)",131

# Another view of some results above.
row	Compound	cleaved PARP positive nuclei fraction [%]
3	Nc1nc(F)nc2c1ncn2[C@@H]1O[C@H](CO)[C@@H](O)[C@@H]1O [fludarabine] + O=C(Nc1cccc(Cl)c1)Nc1ncc(CCNc2ncnc3ccsc23)s1 [SNS314] (first compound 0.2 µM, partner dose 0.0008 µM)	222
26	C=C(c1ccc(C(=O)O)cc1)c1cc2c(cc1C)C(C)(C)CCC2(C)C [Bexarotene] + Cc1ccc(NC(=O)c2cccc(N(C)C)c2)cc1NC(=O)c1ccc(O)cc1 [ZM336372] (first compound 2 µM, partner dose 2 µM)	50.5
